{
  "source": "PubChem BioAssay AID1347076",
  "about": "(National Center for Advancing Translational Sciences (NCATS), 2019)",
  "note": "Hit rate of the full screen: of about 400,000 compounds, about 13,000 (3.2%) were called active. This list was built around the results that the source calls inconclusive (neither active nor inactive); the mix of calls is not that of the screen. Calls follow the shape of the dose curve; as a rule, active = well fitted cell-killing curve with a large enough effect; inconclusive = small, poorly fitted or top-dose-only effect, or effect the other way; inactive = flat fitted curve, though single readings scatter. Potencies of inconclusive entries are doubtful fits and often do not repeat. % is scaled to controls: 0 for no effect and ±100 for the full control effect; potency is read from the fitted curve at half-maximal effect.",
  "data": [
    {"experiment": "qHTS assay for MDR1-selective chemotherapeutics: Primary screen using the drug-selected MDR subline cells KB-V1; also: nearly all actives have a fitted effect of over 60% in size", "settings": "KB-V1 MDR cells viability, CellTiter-Glo, 72 h; activity change, negative = cytotoxicity: at 46.1 µM (top of the series)", "summary_of_the_method": "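Luminescent ATP read-out (CellTiter-Glo, 10 min) measures survival of drug-selected KB-V1 MDR cells after 72 h, 37 degrees C compound exposure. Medium: phenol-red-free DMEM, 10% FBS. Values from fitted concentration-response curves.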", "values": [
      {"smiles": "CCCCc1ccc(S(=O)(=O)N2CCN(C(=O)c3ccco3)CC2)cc1", "Potency": "inconclusive: 32.6 µM [cytotoxic, single point]"},
      {"smiles": "COc1ccc(-c2csc3ncnc(N4CCN(c5cccc(C)c5C)CC4)c23)cc1", "Potency": "inconclusive: 16.4 µM [cytotoxic, partial curve]"},
      {"smiles": "S=C(NCCc1ccccc1)N1CCc2ccccc2C1", "Potency": "inconclusive: 18.4 µM [cytotoxic, single point]"},
      {"smiles": "Cc1ccccc1Cn1cc(/C=N/n2cnnc2)c2ccccc21", "activity change, negative = cytotoxicity": "inconclusive: -36.8% [cytotoxic]"},
      {"smiles": "O=C(COC(=O)CSc1ccc(F)cc1)NCc1ccco1", "Potency": "inconclusive: 0.0073 µM [rising, full curve]"},
      {"smiles": "CC(C)CCNC(=O)C(c1ccc(O)cc1)N(Cc1cccs1)C(=O)C1COc2ccccc2O1", "note": "(stereo not given)", "Potency": "inconclusive: 18.4 µM [cytotoxic, single point]"},
      {"smiles": "Fc1cc(Cl)ccc1NC(=S)NCCN1CCOCC1", "Potency": "inconclusive: 32.6 µM [rising, single point]"},
      {"smiles": "Cc1cc(/C=N/n2c(COc3ccccc3C)nc3ccccc3c2=O)c(O)c([N+](=O)[O-])c1", "Potency": "inactive"},
      {"smiles": "COc1ccc(C2N=C(c3ccccc3)NC(c3ccccc3)=N2)cc1", "Potency": "inconclusive: 23.1 µM [cytotoxic, single point]"},
      {"smiles": "CCc1ccccc1NC(=O)[C@@H](c1ccccc1)N1Cc2ccccc2C1=O", "Potency": "inactive"},
      {"smiles": "O=C(Nc1ccc(F)cc1F)Nc1ccc(F)cc1F", "Potency": "inconclusive: 11.6 µM [cytotoxic, partial curve, poor fit]"},
      {"smiles": "COc1cc2c(c(OC)c1OC)-c1ccc(SC)c(=O)cc1C(NC=O)CC2", "note": "(stereo not given)", "Potency": "active: 0.291 µM"},
      {"smiles": "CN(CC(=O)Nc1cccc(F)c1)C(=O)c1cccc(S(=O)(=O)N2CCN(Cc3ccccc3)CC2)c1", "Potency": "inconclusive: 23.1 µM [cytotoxic, single point]"},
      {"smiles": "CCOc1ccc(OCCOCCOc2c(Cl)cccc2Cl)cc1", "Potency": "inconclusive: 23.1 µM [cytotoxic, partial curve, poor fit]"},
      {"smiles": "O=[N+]([O-])c1cc([N+](=O)[O-])c(Oc2cncc(Cl)c2)cc1NN1CCCCC1", "Potency": "inconclusive: 25.9 µM [rising, single point]"},
      {"smiles": "COc1cccc(-c2nc(CS(=O)(=O)CC(=O)Nc3c(C)cccc3C)c(C)o2)c1", "Potency": "inactive"},
      {"smiles": "CC(C)[C@@H]1CC[C@@H](C)C[C@H]1OC(=O)C[n+]1cc(-c2ccc(Cl)cc2)n2c1CCCCC2", "Potency": "inactive"},
      {"smiles": "CC(=O)c1ccc(N2CCN(C(=O)CCc3nnc4n(C)c(=O)c5sccc5n34)CC2)cc1", "Potency": "inconclusive: 18.4 µM [rising, single point]"},
      {"smiles": "O=C(NC1CCN(Cc2ccccc2)CC1)c1cccc(S(=O)(=O)Nc2ccc(SC(F)F)cc2)c1", "Potency": "inactive"},
      {"smiles": "CCCc1n[nH]c2c1/C(=N/O)CC(c1ccccc1)C2", "note": "(stereo not given)", "Potency": "inconclusive: 20.6 µM [cytotoxic, partial curve, poor fit]"},
      {"smiles": "O=C(Cn1ncc2c(=O)oc3ccccc3c21)NCc1cccnc1", "Potency": "inconclusive: 29.1 µM [rising, single point]"},
      {"smiles": "C=CCC1(CC=C)CCCN1C(=O)c1cc(COc2cccc(C(F)(F)F)c2)on1", "Potency": "inconclusive: 18.4 µM [cytotoxic, single point]"},
      {"smiles": "C=CC[C@@H](CC(=O)N(CCO)Cc1ccccc1)C(=O)N[C@H](COC(=O)[C@H](CC=C)CC(=O)OC(C)(C)C)Cc1c[nH]c2ccccc12", "Potency": "inactive"},
      {"smiles": "COc1ccc(CSc2nc(C)cc(C)c2S(C)(=O)=O)cc1", "Potency": "inconclusive: 20.6 µM [cytotoxic, single point]"},
      {"smiles": "NC(=O)N=Nc1c2[nH]c3ccccc3nc-2c2ccccc12", "Potency": "inconclusive: 29.1 µM [cytotoxic, single point]"},
      {"smiles": "Cn1c(/C(C#N)=C(\\O)c2ccc([N+](=O)[O-])s2)nc2ccccc21", "Potency": "inactive"},
      {"smiles": "Cc1ccc(NC(=O)CNc2ccc(Cl)c(Cl)c2)cc1S(=O)(=O)N(C)C", "Potency": "active: 20.6 µM"},
      {"smiles": "COc1ccc2sc(-c3ccccc3OC)c(-c3ccc(SC)cc3)c2c1", "Potency": "inactive"},
      {"smiles": "CCN(C(=O)COc1ccc(C(=O)c2ccccc2)cc1)c1ccccc1", "Potency": "inconclusive: 29.1 µM [cytotoxic, single point]"},
      {"smiles": "Cc1cc(C(=O)COC(=O)c2ccc3c(c2)NC(=O)CS3)c(C)n1CC1CCCO1", "note": "(stereo not given)", "Potency": "active: 11.6 µM"},
      {"smiles": "Cc1ncsc1CCSc1nc2ccccc2c(=O)n1C", "Potency": "inactive"},
      {"smiles": "CCOc1ccccc1NC(=O)c1cccc(NC(=O)c2ccco2)c1", "Potency": "inconclusive: 14.6 µM [cytotoxic, partial curve, poor fit]"},
      {"smiles": "Cc1cccc(NC(=O)c2c(O)c3ccccc3n(C)c2=O)c1", "Potency": "inconclusive: 3.26 µM [cytotoxic, full curve]"},
      {"smiles": "COc1ccc(N2CCN(CCNC(=O)CCC(=O)NNc3nc4ccccc4c4nc(C)nn34)CC2)cc1", "activity change, negative = cytotoxicity": "inconclusive: -6.57%"},
      {"smiles": "CN(C(=O)CSc1nc(N)cc(N)n1)C1CCS(=O)(=O)C1", "note": "(stereo not given)", "Potency": "inconclusive: 29.1 µM [rising, single point]"},
      {"smiles": "Cc1ccc(S(=O)(=O)NCC(=O)N(CC(=O)NCC2CCCO2)Cc2ccco2)cc1", "note": "(stereo not given)", "Potency": "inactive"},
      {"smiles": "CN(C(=S)NC(=O)C1CC1)c1ccc(O)cc1", "Potency": "inactive"},
      {"smiles": "CC1(C)[C@H](C(=O)O)N2C(=O)C[C@H]2S1(=O)=O", "Potency": "inconclusive: 8.2 µM [rising, partial curve]"},
      {"smiles": "COc1ccc(CC(=O)Nn2c(-c3ccccc3)nc3ccccc3c2=O)cc1", "Potency": "inconclusive: 14.6 µM [cytotoxic, single point]"},
      {"smiles": "COc1cc(C(CC(=O)Nc2cccc(C(C)=O)c2)N2Cc3ccccc3C2=O)cc(OC)c1OC", "note": "(stereo not given)", "activity change, negative = cytotoxicity": "inconclusive: 3.28%"},
      {"smiles": "Cc1ccc[n+](C(C)C(=O)Nc2ccc([N+](=O)[O-])cc2C)c1", "note": "(stereo not given)", "Potency": "inconclusive: 2.59 µM [rising, full curve, poor fit]"},
      {"smiles": "Cc1cc(N2CCCCC2)nc(NCc2ccccc2)n1", "Potency": "inconclusive: 25.9 µM [cytotoxic, single point]"},
      {"smiles": "N/C(=C/C(=O)c1ccccc1O)C(F)(F)F", "Potency": "inconclusive: 29.1 µM [rising, single point]"},
      {"smiles": "CCOc1ccc(C(C(=O)NC2CCCC2)N(C(=O)c2snc(C(N)=O)c2N)C2CCCC2)cc1", "note": "(stereo not given)", "Potency": "inconclusive: 10.3 µM [cytotoxic, partial curve]"},
      {"smiles": "Cn1c(=O)cc(OCC(=O)NCCC2=CCCCC2)c2ccccc21", "Potency": "inconclusive: 10.3 µM [cytotoxic, partial curve]"},
      {"smiles": "CCS(=O)(=O)N1CCC(C(=O)Nc2ccccc2OC)CC1", "Potency": "inactive"},
      {"smiles": "CCOC(=O)c1c(NC(=O)/C=C/c2ccc(C)cc2)sc(C(C)=O)c1C", "Potency": "inconclusive: 23.1 µM [rising, partial curve]"},
      {"smiles": "CN(C)CCN(Cc1ccccc1)C(=O)C1CCN(c2ncnc3c2nc2n3CCCCC2)CC1", "Potency": "inactive"},
      {"smiles": "COc1ccccc1OCc1nnc(SCC(=O)NCc2ccco2)n1Cc1ccco1", "Potency": "inconclusive: 16.4 µM [cytotoxic, single point]"},
      {"smiles": "CCNC(=S)NNC(=O)c1cccs1", "Potency": "inactive"},
      {"smiles": "O=c1nc2n(c3ncccc13)CCCCC2", "Potency": "inactive"},
      {"smiles": "CSc1ccc(Cn2c(C)c(C(=O)NCc3ccc4c(c3)OCCO4)sc2=O)cc1", "Potency": "active: 18.4 µM"},
      {"smiles": "CSc1ccc(CN2CCC(C)(Oc3ccc(-n4ccnc4)cc3)C2)cc1", "note": "(stereo not given)", "Potency": "inconclusive: 2.06 µM [cytotoxic, full curve, poor fit]"},
      {"smiles": "Cc1ccccc1OCC(=O)NCC(=O)OCC(=O)c1ccc2ccccc2c1", "activity change, negative = cytotoxicity": "inconclusive: 30.3%"},
      {"smiles": "CC(O)CN(C)CC/C=C1/c2ccccc2CSc2ccccc21", "note": "(stereo not given)", "Potency": "inactive"},
      {"smiles": "Cc1ccc(C)c(N2CCN(S(=O)(=O)c3ccc(-c4coc(C)n4)cc3)CC2)c1", "Potency": "inconclusive: 29.1 µM [rising, single point]"},
      {"smiles": "Cc1cc(=O)oc2cc(NC(=O)C(C)Oc3ccccc3)ccc12", "note": "(stereo not given)", "Potency": "inconclusive: 4.61 µM [cytotoxic, partial curve, poor fit]"},
      {"smiles": "COc1cccc(C(C)=C2SC(=S)NC2=O)c1", "Potency": "active: 20.6 µM"},
      {"smiles": "COCCCNC(=O)C(=O)Nc1ccc2c(c1)N(S(=O)(=O)c1cccs1)CCC2", "Potency": "active: 1.03 µM"},
      {"smiles": "CCCCc1c(C)nc2c(-c3ccc(Cl)cc3)c(C)[nH]n2c1=O", "Potency": "inconclusive: 4.11 µM [cytotoxic, full curve, poor fit]"},
      {"smiles": "Cc1ccc(S(=O)(=O)N(CC(=O)NCCSCc2ccco2)c2cc(C)ccc2C)cc1", "Potency": "inconclusive: 20 µM [cytotoxic, partial curve]"},
      {"smiles": "Cn1c(OCc2cccnc2)nc2c1c(=O)n(Cc1ccc(Cl)cc1)c(=O)n2C", "Potency": "inconclusive: 10 µM [cytotoxic, partial curve]"},
      {"smiles": "COc1cc(C(O)c2nc(-c3ccc(C)c(C)c3)cs2)ccc1F", "note": "(stereo not given)", "Potency": "inactive"},
      {"smiles": "O=C(c1ccc(F)c(S(=O)(=O)N2CCOCC2)c1)N1CCc2ccccc21", "Potency": "inconclusive: 11.6 µM [cytotoxic, partial curve]"},
      {"smiles": "COc1cc2c(cc1[N+](=O)[O-])-c1ccc([N+](=O)[O-])cc1C2=NO", "Potency": "inconclusive: 20.6 µM [cytotoxic, single point]"},
      {"smiles": "CCN(CC(=O)NCc1ccc(F)cc1)C(=O)COc1ccc(C)c(C)c1", "Potency": "active: 18.4 µM"},
      {"smiles": "Cc1ccc2cc(/C=N/NC(=O)c3ccc(F)cc3)c(Cl)nc2c1", "Potency": "inactive"},
      {"smiles": "COc1ccc(-n2cc(-c3ccc4c(c3)OCO4)n(CC(=O)Nc3cccc(C)c3C)c2=O)c(OC)c1", "Potency": "inconclusive: 18.4 µM [cytotoxic, partial curve, poor fit]"},
      {"smiles": "CC(C)(C)NC(=O)CN(C(=O)c1snc(C(=O)NC2CCCCC2)c1N)c1ccccc1F", "Potency": "inconclusive: 10.3 µM [cytotoxic, partial curve]"},
      {"smiles": "Clc1ccc(-n2nnnc2SCc2cn3ccccc3n2)cc1", "Potency": "inactive"}
    ]}
  ]
}
